In PubChem BioAssay AID2551 (National Center for Advancing Translational Sciences (NCATS), 2010):
The whole screen tested about 310,000 compounds, of which about 17,000 (5.5%) were called active. The inconclusive results got no clear call from the source; some entries with a clear call stand among them for comparison. The call rests on the fitted dose curve; in most records, active means well fitted inhibition curve with a large enough effect; inconclusive means small, poorly fitted or top-dose-only effect, or effect the other way; inactive means no such curve, though single readings can be large or run the other way. Where the call is inconclusive, the potency comes from a doubtful curve fit.

By UniProt entry, the sequences of proteins in these tests, tags left out. Where a name states a change or a piece, a line headed by the entry shows the natural chain unless it says otherwise.
UniProt P51450: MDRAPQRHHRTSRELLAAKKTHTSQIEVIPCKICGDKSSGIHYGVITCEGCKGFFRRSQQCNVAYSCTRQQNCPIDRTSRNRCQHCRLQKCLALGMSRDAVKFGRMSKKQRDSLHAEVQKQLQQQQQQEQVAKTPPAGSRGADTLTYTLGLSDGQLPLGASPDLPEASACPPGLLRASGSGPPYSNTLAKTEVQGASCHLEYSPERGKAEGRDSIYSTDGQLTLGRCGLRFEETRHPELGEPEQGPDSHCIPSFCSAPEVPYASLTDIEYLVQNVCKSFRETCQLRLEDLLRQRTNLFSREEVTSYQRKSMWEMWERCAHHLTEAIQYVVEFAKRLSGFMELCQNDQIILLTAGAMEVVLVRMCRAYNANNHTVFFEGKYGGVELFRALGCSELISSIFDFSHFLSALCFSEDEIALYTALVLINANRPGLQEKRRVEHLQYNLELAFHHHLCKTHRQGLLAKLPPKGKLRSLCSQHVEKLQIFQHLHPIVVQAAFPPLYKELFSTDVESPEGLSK

target: Nuclear receptor ROR-gamma (Mus musculus) (UniProt P51450); test: qHTS for inhibitors of ROR gamma transcriptional activity; conditions: Drosophila S2 Gal4-RORgamma UAS-luciferase reporter, 20 h; activity change, negative = inhibition: at 53.6 µM (top of the series); further: nearly all actives have a fitted effect of over 60% in size
Method in brief: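 A Gal4/UAS one-hybrid system in insect cells: metallothionein-promoter Gal4–ROR gamma fusion plus Photinus luciferase reporter. Copper sulfate 700 uM final, 20 hr ambient incubation, luminescent detection after 10 min with reagent.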
On the % scale 0 is the no-effect control and ±100 the full control effect; potency means the concentration at half of the fitted maximal effect.

| Structure (SMILES) | Potency | activity change, negative = inhibition |
| --- | --- | --- |
| CCOC(=O)c1c(N/N=C/c2cccnc2)n[nH]c1C | inactive | – |
| COc1ccc(C(=O)Nc2ccc(S(=O)(=O)Nc3nccnc3OC)cc2)cc1 | inconclusive: 11.2 µM [inhibitor, single point] | – |
| Oc1ccc(Cl)cc1CNc1cnc2ccccc2c1 | inconclusive: 35.5 µM [activator, single point] | – |
| CC1CCN(CCCCOc2ccc(Br)cc2)CC1 | inactive | – |
| CC(C)Cc1ccc([C@@H](C)C(=O)NS(C)(=O)=O)cc1 | inactive | – |
| COc1ccc(CC(=O)Nc2cc(C)ccn2)cc1 | inconclusive: 28.2 µM [inhibitor, single point] | – |
| CC(=O)Nc1ccc(NC(=O)c2nc(S(=O)(=O)Cc3ccccc3)ncc2Cl)cc1 | active: 2.24 µM | – |
| O=C(N/N=C/c1c(Nc2cccc(C(F)(F)F)c2)nc2ccccn2c1=O)c1ccccc1[N+](=O)[O-] | inconclusive: 20 µM [activator, partial curve, poor fit] | – |
| Cc1nn(Cc2ccc(F)cc2)c(C)c1NC(=O)c1cnn2c1NC(c1ccccc1)CC2C(F)(F)F (stereo unspecified) | inconclusive: 35.5 µM [inhibitor, single point] | – |
| CC(=O)Nc1ccc(-c2csc(N/N=C(/C)c3ccccc3)n2)cc1 | inactive | – |
| COC(CNC(=O)c1ccc2nc(-c3ccccc3)c(-c3ccccc3)nc2c1)OC | inactive | – |
| CC(C)Cc1ccc(C(C)C(=O)Nc2ccc(O)cc2)cc1 (stereo unspecified) | inconclusive: 35.5 µM [inhibitor, single point] | – |
| N#CCCn1c(=O)c(-c2cccc(C#N)c2)nc2cnc(N3CCOCC3)nc21 | inactive | – |
| CCOC(=O)c1cc2sccc2n1CC(=O)N1CCc2ccccc21 | inactive | – |
| Cc1cccc(CC(=O)N2CCN=C2SCc2ccc([N+](=O)[O-])cc2)c1 | inconclusive: 35.5 µM [activator, single point] | – |
| O=C(Nc1nc(-c2ccccc2)cs1)c1cccs1 | inconclusive: 12.6 µM [inhibitor, single point] | – |
| CCc1ccc(OCCCC(=O)O)c(Br)c1 | inconclusive: 12.6 µM [activator, single point] | – |
| Cc1nnc(N/N=C/c2cc(C)n(-c3ccc(F)cc3)c2C)n1N | active: 11.2 µM | – |
| COc1ccccc1CNC(=O)CCNS(=O)(=O)c1ccc2c(c1)oc(=O)n2C | inactive | – |
| C=CC(C)N1C(=O)S/C(=C\c2ccc(N3CCOCC3)cc2C)C1=O (stereo unspecified) | inconclusive: 5.01 µM [activator, single point] | – |
| Cc1nn(C)cc1C(=O)Nc1ccc2c(c1)OCCO2 | inconclusive: 28.2 µM [inhibitor, single point] | – |
| CCNC(=O)O/N=C1\CCCCC1c1ccc([N+](=O)[O-])cc1[N+](=O)[O-] (stereo unspecified) | inactive | – |
| O=C1CCN(CCc2ccccc2)CCN1CCOc1ccccc1 | inconclusive: 25.1 µM [inhibitor, single point] | – |
| C=C(C)c1ccccc1 | inactive | – |

| Structure (SMILES) | Potency | activity change, negative = inhibition |
| --- | --- | --- |
| CCOC(=O)c1cccc(NC(=O)COc2ccc([N+](=O)[O-])cc2)c1 | inactive | – |
| Cc1oc2cc(O)ccc2c(=O)c1Oc1ccccc1Br | inconclusive: 22.4 µM [activator, single point] | – |
| CC(=O)c1ccc(N2CCN(C(=O)COc3ccc4c(c3)CCC4)CC2)cc1 | inconclusive: 35.5 µM [activator, single point] | – |
| COc1ccc(/C(C)=N/NC(=O)c2ccncc2)cc1 | inactive | – |
| C=C(C)COc1ccc(-c2n[nH]c(C)c2-c2ccccc2)c(O)c1 | active: 7.08 µM | – |
| COCCN(Cc1cc2cc(C)ccc2nc1Cl)C(=O)Nc1ccccc1OC | inconclusive: 35.5 µM [activator, single point] | – |
| COc1cccc(/C=C/c2nc(C#N)c(NCC(C)C)o2)c1 | inconclusive: 11.2 µM [activator, partial curve] | – |
| CCC1(c2ccccc2)NC(=O)N(CC(=O)Nc2ccc(OC)nc2)C1=O (stereo unspecified) | inconclusive: 5.62 µM [inhibitor, single point] | – |
| Cc1ccc(-c2n[nH]c(=S)n2/N=C/c2cccs2)cc1 | active: 5.01 µM | – |
| Cc1ccc2cccc(OC(=O)/C=C\c3ccccc3)c2n1 | inactive | – |
| CSc1ccc(/C=N/NC(=O)c2ccc(C)c(C)c2)cc1 | inconclusive: 22.4 µM [inhibitor, single point] | – |
| O=C(/C=C/c1ccc(OCc2cccc(Cl)c2)cc1)N1CCOCC1 | inconclusive: 14.1 µM [activator, single point] | – |
| CC(C)CCSc1nc(N)c(C#N)cc1C#N | inconclusive: 15.8 µM [activator, single point] | – |
| COc1ccc(Cn2c(SCc3ccc(C)cc3)nc3cc(OC)c(OC)cc3c2=N)cc1Cl | active: 3.98 µM | – |
| O=C(Nc1ccc(S(=O)(=O)NCC2CCCO2)cc1)c1ccccc1 (stereo unspecified) | inconclusive: 22.4 µM [inhibitor, single point] | – |
| CCCCCCCCNC(=O)CC(NS(=O)(=O)c1ccc(NC(C)=O)cc1)C(C)C (stereo unspecified) | inconclusive: 3.98 µM [activator, full curve] | – |
| CCc1ccc(OCC(=O)N/N=C(\C)c2ccc(-n3ccnc3)cc2)cc1 | inconclusive: 1.78 µM [activator, full curve] | – |
| COc1ccc(-c2c(C)nc(N)nc2-c2ccc(OCc3ccc(C)cc3)cc2O)cc1OC | inconclusive: 35.5 µM [activator, single point] | – |
| O=C1C2CC=CCC2C(=O)N1Cc1nnc(-c2ccc(Cl)cc2)o1 (stereo unspecified) | inactive | – |
| CC(=O)Nc1ccc(S(=O)(=O)NC2=C(N3CCN(Cc4ccccc4)CC3)C(=O)c3ccccc3C2=O)cc1 | inconclusive: 35.5 µM [inhibitor, single point] | – |
| COc1ccc(S(=O)(=O)N2CCCC(C(=O)Nc3cccc(C(C)=O)c3)C2)cc1 (stereo unspecified) | inconclusive: 35.5 µM [inhibitor, single point] | – |
| Cc1ccc(-n2nc(-c3ccco3)cc2C(=O)NCc2cccnc2)cc1 | inconclusive: 20 µM [activator, single point] | – |
| CCOc1ccc(C(=O)Nc2cc(C)on2)cc1 | inconclusive: 7.08 µM [inhibitor, single point] | – |
| CCOC(=O)c1cnc(-n2cc(C)cn2)nc1Nc1ccccc1OCC | active: 1.78 µM | – |

Complete entries as entered above. Order of values: Potency | activity change, negative = inhibition
`CCc1ccc(OCC(=O)N/N=C(\C)c2ccc(-n3ccnc3)cc2)cc1` reads inconclusive: 1.78 µM [activator, full curve] | –
`O=C(Nc1ccc(S(=O)(=O)NCC2CCCO2)cc1)c1ccccc1` (stereo unspecified) reads inconclusive: 22.4 µM [inhibitor, single point] | –
`CCOC(=O)c1cnc(-n2cc(C)cn2)nc1Nc1ccccc1OCC` reads active: 1.78 µM | –
`Cc1ccc(-n2nc(-c3ccco3)cc2C(=O)NCc2cccnc2)cc1` reads inconclusive: 20 µM [activator, single point] | –

(cont.)

| Structure (SMILES) | Potency | activity change, negative = inhibition |
| --- | --- | --- |
| CC1=CC(=O)C(C(C)C)=C/C1=C(\c1cc(C(C)C)c(OP(=O)(O)O)cc1C)c1ccccc1C(=O)O | inactive | – |
| Cc1cccc(OCC(=O)N/N=C\C=C\c2ccc3c(c2)OCO3)c1C | inconclusive: 12.6 µM [inhibitor, single point] | – |
| O=C1NC(Cc2c[nH]c3ccccc23)C(=O)N1Cc1ccccc1 (stereo unspecified) | inactive | – |
| Cc1cccc(N2CCN(C(=O)c3cc4c(=O)n(C)c5ccccc5c4n3C)CC2)c1C | inactive | – |
| Cc1oc(-c2ccccc2F)nc1CN1CCC(C(=O)NC2CCCCCCC2)CC1 | inactive | – |
| CN(C(=O)COC(=O)c1ccc(Cl)cc1N)C1CCCCC1 | inconclusive: 11.2 µM [activator, partial curve, poor fit] | – |
| S=C1NC[C@H](c2ccccc2)N1CCCCC1CCCCC1 | active: 0.447 µM | – |
| C=CCNC(=O)c1ccc(Cn2c(=S)[nH]c3cc4c(cc3c2=O)OCO4)cc1 | inactive | – |
| COCC(=O)N1CCC2(CCCN(c3cccc(-c4ccccc4)c3)C2)CC1 | inactive | – |
| CCn1c(C)c(C(C)=O)c(N2CCN(C(c3ccccc3)c3ccccc3)CC2)nc1=S | inconclusive: 35.5 µM [inhibitor, single point] | – |
| Cc1cc(/C=N/NC(=O)c2c(Br)cnn2C)c(C)n1-c1cccc(Br)c1 | active: 6.31 µM | – |
| CC[C@H](C)[C@H](NC(=O)[C@H](CCC(=O)O)NC(=O)CNC(=O)[C@@H](NC(=O)[C@@H]1CCCN1C(=O)[C@@H](NC(=O)[C@@H]1CCCN1C(=O)[C@@H]1CCCN1C(=O)[C@H](CC(N)=O)NC(=O)[C@H](CC(N)=O)NC(=O)[C@@H](NC(=O)[C@H](CCSC)NC(=O)[C@H](Cc1c[nH]c2ccccc12)NC(=O)CNC(=O)[C@@H](NC(=O)[C@H](CCC(N)=O)NC(=O)[C@@H](N)CCC(=O)O)[C@@H](C)CC)[C@@H](C)O)[C@@H](C)CC)C(C)C)C(=O)O | inactive | – |
| COc1cccc2sc(Nc3nc(-c4ccncc4)cs3)nc12 | active: 12.6 µM | – |
| C/C(CC(=O)Nc1ccc2c(c1)OCO2)=N\NC(=O)C(c1ccccc1)c1ccccc1 | active: 15.8 µM | – |
| O=C(N/N=C/c1cn(-c2cccs2)nc1-c1ccccc1)c1ccc(O)cc1 | inconclusive: 22.4 µM [inhibitor, single point] | – |
| O=C(Nc1cnn(Cc2ccc(F)cc2)c1)c1cnccn1 | inactive | – |
| O=C(Nc1nc(-c2ccccn2)cs1)C12CC3CC(CC(O)(C3)C1)C2 | inconclusive: 17.8 µM [inhibitor, single point] | – |
| COc1cccc(-c2nn(-c3ccccc3)cc2CN(C)Cc2c(C)nc3ccccn23)c1 | active: 7.08 µM | – |
| COc1ccccc1OCCNC(=O)c1ccc(S(=O)(=O)N(C)C)cc1 | inconclusive: 11.2 µM [activator, single point] | – |
| C=CC1=C[C@@H](O)C2OC2C12OCCCO2 (stereo partly specified) | – | inactive: 10.4% [at 10 µM] |
| COc1ccc(Br)cc1/C=C/C(=O)c1ccc(NC(C)=O)cc1 | active: 5.01 µM | – |
| COc1ccc(C(=O)N/N=C/C(C)c2ccccc2)cc1OC (stereo unspecified) | inconclusive: 15.8 µM [inhibitor, partial curve] | – |
| COC(=O)C1=C(C)N(c2cccc(OC)c2)C(=O)/C1=C\c1ccco1 | inconclusive: 15.8 µM [activator, single point] | – |
